PubChem BioAssay AID1259299 – Sanger Institute | 2017
Aim: 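Kinases and colorectal mutated genes needed by colorectal cancer cells, with or without drugs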 (primary screen). System: human CAR1 colorectal cancer cells. Reagent: siRNA pool against human genes. Conditions: anchor drug BYL719 1 µM, cetuximab 5 µg/ml or trametinib 10 nM, or DMSO vehicle alone; exposure length not given. Measured: 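Mean replicate viability versus non-targeting controls, turned into robust z-scores, plus drug synergy scores for BYL719, cetuximab and trametinib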. Reading the numbers: viability robust z-score, knock-down alone and viability, knock-down alone (DMSO): higher = more viable cells. Hit rule: 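a gene is called essential if its knock-down-alone viability z-score drops under -3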. Calls: active = essential (knock-down alone); inactive = no change.
In all, the deposit lists 794 reagents; below is a random part of them. 9 of them (1.1%) count as active. 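Calls rest on knock-down alone; synergy scores play no part in calls, and no gene passed the synergy cut.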 Viability is capped at 1. Further read-outs or replicates are left out here. Not given: the amount of reagent, the time to read-out.

target	viability robust z-score, knock-down alone	viability, knock-down alone (DMSO) (fraction of control)	call
MAP2K2 (mitogen-activated protein kinase kinase 2)	0.757	0.997	inactive
DGKG (diacylglycerol kinase gamma)	0.15	0.941	inactive
SCYL1 (SCY1 like pseudokinase 1)	0.789	1	inactive
TPD52L3 (TPD52 like 3)	0.789	1	inactive
EIF2AK3 (eukaryotic translation initiation factor 2 alpha kinase 3)	0.789	1	inactive
GRK6 (G protein-coupled receptor kinase 6)	0.238	0.949	inactive
MSR1 (macrophage scavenger receptor 1)	-1.07	0.828	inactive
TRIB1 (tribbles pseudokinase 1)	-0.238	0.905	inactive
CDK5R2 (cyclin dependent kinase 5 regulatory subunit 2)	0.789	1	inactive
STK16 (serine/threonine kinase 16)	0.789	1	inactive
NEK4 (NIMA related kinase 4)	0.081	0.935	inactive
IPPK (inositol-pentakisphosphate 2-kinase)	0.522	0.975	inactive
EPHA3 (EPH receptor A3)	-1.23	0.814	inactive
EPHB3 (EPH receptor B3)	0.77	0.998	inactive
PDK3 (pyruvate dehydrogenase kinase 3)	0.789	1	inactive
RNASEL (ribonuclease L)	0.647	0.987	inactive
STK32A (serine/threonine kinase 32A)	-0.461	0.885	inactive
ALDH18A1 (aldehyde dehydrogenase 18 family member A1)	-0.243	0.905	inactive
PRKACG (protein kinase cAMP-activated catalytic subunit gamma)	0.32	0.957	inactive
PRKCG (protein kinase C gamma)	-0.124	0.916	inactive
MST1R (macrophage stimulating 1 receptor)	-0.299	0.899	inactive
UCK1 (uridine-cytidine kinase 1)	0.768	0.998	inactive
PNKP (polynucleotide kinase 3'-phosphatase)	-1.74	0.766	inactive
FN3KRP (fructosamine 3 kinase related protein)	-4.35	0.526	active
MELK (maternal embryonic leucine zipper kinase)	0.789	1	inactive
CERT1 (ceramide transporter 1)	0.61	0.983	inactive
CRIM1 (cysteine rich transmembrane BMP regulator 1)	-0.00119	0.927	inactive
GTF2H1 (general transcription factor IIH subunit 1)	-0.288	0.901	inactive
RSKR (ribosomal protein S6 kinase related)	0.789	1	inactive
TLK1 (tousled like kinase 1)	-0.129	0.915	inactive
FGFR1 (fibroblast growth factor receptor 1)	-0.553	0.876	inactive
TESK2 (testis associated actin remodelling kinase 2)	0.789	1	inactive
CSNK1G3 (casein kinase 1 gamma 3)	0.789	1	inactive
NEK8 (NIMA related kinase 8)	-1.61	0.778	inactive
PFKFB2 (6-phosphofructo-2-kinase/fructose-2,6-biphosphatase 2)	-0.681	0.864	inactive
ARID1A (AT-rich interaction domain 1A)	0.789	1	inactive
MAP3K7 (mitogen-activated protein kinase kinase kinase 7)	0.146	0.941	inactive
CDKL4 (cyclin dependent kinase like 4)	-0.808	0.853	inactive
PI4K2A (phosphatidylinositol 4-kinase type 2 alpha)	0.179	0.944	inactive
PASK (PAS domain containing serine/threonine kinase)	-1.22	0.814	inactive
MOK (MOK protein kinase)	0.789	1	inactive
MAP3K1 (mitogen-activated protein kinase kinase kinase 1)	0.283	0.953	inactive
PIK3R1 (phosphoinositide-3-kinase regulatory subunit 1)	-0.0234	0.925	inactive
TEX14 (testis expressed 14, intercellular bridge forming factor)	0.153	0.941	inactive
ERBB3 (erb-b2 receptor tyrosine kinase 3)	0.789	1	inactive
NEK3 (NIMA related kinase 3)	0.789	1	inactive
KMT2B (lysine methyltransferase 2B)	0.168	0.943	inactive
TAB1 (TGF-beta activated kinase 1 (MAP3K7) binding protein 1)	0.789	1	inactive
MAPK12 (mitogen-activated protein kinase 12)	0.789	1	inactive
EPHA8 (EPH receptor A8)	-0.024	0.925	inactive

A stretch from the list above, as a working copy:
target	viability robust z-score, knock-down alone	viability, knock-down alone (DMSO) (fraction of control)	call
NEK4 (NIMA related kinase 4)	0.081	0.935	inactive
IPPK (inositol-pentakisphosphate 2-kinase)	0.522	0.975	inactive
EPHA3 (EPH receptor A3)	-1.23	0.814	inactive
EPHB3 (EPH receptor B3)	0.77	0.998	inactive
PDK3 (pyruvate dehydrogenase kinase 3)	0.789	1	inactive
RNASEL (ribonuclease L)	0.647	0.987	inactive
STK32A (serine/threonine kinase 32A)	-0.461	0.885	inactive
